Measured values reported in PubChem BioAssay AID192 (DTP/NCI, 2004).
The list is a part of this screen's results and no random one: it is rich in T/C values a quarter to a half above the control, in often repeated tests (any T/C) and in doses without a T/C. Other doses and runs of a compound stand elsewhere. T/C gives the treated animals as a percentage of the vehicle group. Some entries give survivors of the animals treated and no T/C: the source holds a T/C of zero for them, seemingly a mark for toxic or unscored doses. Some survivor counts are full or nearly so, which does not show that the dose was tolerated: survival well below the control is almost never listed, so the zero probably covers shortened survival too. Survivors were counted at the toxicity check, usually on the fifth day, unless a day is given; later deaths do not show. Schedule codes are those of the source, taken here to give the interval after Q, in days (D) or hours (H), and the number of doses after X. Some entries were tested several times; the values are given in rising order. Some schedule codes hold Z or #, which are not explained here. Where survival is the endpoint, the PubChem record calls one and a half times the control and up active, and a quarter to a half above the control has no call in these data; cut-offs in other NCI protocols can differ. Numbered stars: 1 amine (or outer) side, 2 acyl side, 3 side chain; on linkers, the order of the positions; unused ones are H or OH. Bridge positions count the residues as written; N and C are the ends. Square brackets hold non-standard residues; d marks the D form. Peptide text beside a SMILES is read from it. I, II: the chains in the order shown. Actinocin(1to9) = Cc1c2oc3c(C)ccc(C(=O)[*:2])c3nc-2c(C(=O)[*:1])c(N)c1=O; NMeV = CN[CH](C(=O)O)C(C)C; Aze = O=C(O)[CH]1CCN1; Sar = CNCC(=O)O

System: BDF1 mice, B16 melanoma ip, median survival T/C
Experiment: NCI In Vivo Anticancer Drug Screen. Data for tumor model B16 Melanoma (intraperitoneal) in B6D2F1 (BDF1) mice
Settings: T/C endpoint: median survival time, higher T/C = longer survival
Protocol: The antitumor activity of compounds was measured in mice bearing transplantable tumors. Survival or tumor size were measured and the results are expressed as the measurement made in the treated group (T) divided by the measurement made in the vehicle treated control group (C). The tumor model used in this assay is B16 Melanoma (intraperitoneal) in B6D2F1 (BDF1) mice

[1] = dose: 400.0 mg/kg/injection, schedule: Q01DX009 (ip), vehicle: Klucel (hydroxypropylcellulose) (HPC)
[2] = dose: 50.0 mg/kg/injection, schedule: Q01DX009 (ip), vehicle: saline with Tween-80
[3] = dose: 100.0 mg/kg/injection, schedule: Q01DX009 (ip), vehicle: Klucel (hydroxypropylcellulose) (HPC)
[4] = dose: 100.0 mg/kg/injection, schedule: Q01DX009 (ip), vehicle: saline with Tween-80
[5] = dose: 200.0 mg/kg/injection, schedule: Q01DX009 (ip), vehicle: saline with Tween-80
[6] = dose: 200.0 mg/kg/injection, schedule: Q01DX009 (ip), vehicle: Klucel (hydroxypropylcellulose) (HPC)
[7] = dose: 25.0 mg/kg/injection, schedule: Q01DX009 (ip), vehicle: saline
[8] = dose: 150.0 micrograms/kg/injection, schedule: Q01DX009 (ip), vehicle: saline + alcohol

For `C=C(C)CNC1=C(C)C(=O)C2=C(C1=O)[C@H](COC(N)=O)[C@]1(OC)[C@@H]3N[C@@H]3CN21`, the T/C (dose: 0.5 mg/kg/injection, schedule: Q01DX001 (ip), vehicle: distilled water + Tween-80) was 130 % of control, the T/C (dose: 1.0 mg/kg/injection, schedule: Q01DX001 (ip), vehicle: distilled water + Tween-80) was 129 % of control and the survivor count (dose: 24.0 mg/kg/injection, schedule: Q04DX003 (ip), vehicle: distilled water + Tween-80) was 9 of 10.
`COc1ccc(N=C(N)NC#N)cc1` was tested, and the survivor count [1] was 10 of 10.
In the case of `CCCN(C)N=Nc1ccccc1C(=O)O`, the T/C [2] is reported as 148 % of control, the survivor count [3] is reported as 10 of 10 and the survivor count [4] is reported as 8 of 10.
In the case of `O=CC=O`, the T/C [5] is reported as 128 % of control and the survivor count (dose: 400.0 mg/kg/injection, schedule: Q01DX009 (ip), vehicle: saline with Tween-80) is reported as 0 of 10.
In the case of `O=C1OCCN1/N=C/c1ccc([N+](=O)[O-])o1`, the survivor count [6] is reported as 10 of 10 and the survivor count [1] is reported as 0 of 10.
For `CCOC(=O)C(N)C[S][Sn]([CH3])([CH3])[Cl]` (stereo not given), the survivor count [2] was 8 of 10 and the survivor count [4] was 0 of 10.
In the case of `CSCCC(C#N)c1ccccc1` (stereo not given), the survivor count [5] is reported as 4 of 10.
With `CC(=O)O[C@H]1[C@H]2O[C@]23[C@@H]2CC[C@@H]4C[C@@H](O)CC[C@]4(C)[C@H]2CC[C@]3(C)[C@H]1c1ccc(=O)oc1` the survivor count (dose: 15.0 mg/kg/injection, schedule: Q01DX009 (ip), vehicle: saline with Tween-80) was 5 of 6 and the survivor count (dose: 30.0 mg/kg/injection, schedule: Q01DX009 (ip), vehicle: saline with Tween-80) was 0 of 6.
With `Cc1ccc(S(=O)(=O)N=N/C=C2/C=CC=CN2O)cc1` the survivor count [6] was 10 of 10.
With `c1ccc(C2=C([P+](c3ccccc3)(c3ccccc3)c3ccccc3)CCO2)cc1` the T/C (dose: 1.5 mg/kg/injection, schedule: Q01DX009 (ip), vehicle: saline) was 133 % of control, the T/C (dose: 3.0 mg/kg/injection, schedule: Q01DX009 (ip), vehicle: saline) was 138 % of control and the survivor count (dose: 12.5 mg/kg/injection, schedule: Q01DX009 (ip), vehicle: saline) was 9 of 10. For the same compound, the survivor count [7] was 1 of 10.
For `CC1=CC(=O)[C@@H](O)[C@]2(C)[C@H]3[C@@]4(O)OC[C@]35[C@H]([C@@H](C)[C@H]4O)[C@@H](OC(=O)c3ccccc3)C(=O)O[C@@H]5C[C@@H]12`, the T/C (dose: 0.5 mg/kg/injection, schedule: Q01DX009 (ip), vehicle: saline with Tween-80) was 130 % of control and the T/C (dose: 1.0 mg/kg/injection, schedule: Q01DX009 (ip), vehicle: saline with Tween-80) was 139 % of control.
For `C[C@]12CC[C@H](O)C[C@@]1(O)CC[C@@H]1[C@@H]2CC[C@]2(C)[C@@H](c3ccc(=O)oc3)CC[C@]12O`, the survivor count [4] was 10 of 10.
For `Clc1cccc(/C=C2\c3cc(Cl)ccc3-c3c(Cl)cc(Cl)cc32)c1`, the survivor count [4] was 6 of 6.
In the case of `Cc1c2oc3c(C)ccc(C(=O)NC4C(=O)NC(C(C)C)C(=O)N5CCCC5C(=O)N(C)CC(=O)N(C)C(C(C)C)C(=O)OC4C)c3nc-2c(C(=O)NC2C(=O)NC(C(C)C)C(=O)N3CCC3C(=O)N(C)CC(=O)N(C)C(C(C)C)C(=O)OC2C)c(N)c1=O` (stereo not given) (I: TV[Aze][Sar][NMeV] / II: TVP[Sar][NMeV]; ester I:1-I:C, II:1-II:C; linker I:N-II:N via Actinocin(1to9); configuration not given here), the T/C (dose: 0.3 mg/kg/injection, schedule: Q04DX003 (ip), vehicle: saline + alcohol) is reported as 133 % of control, the survivor count (dose: 0.45 mg/kg/injection, schedule: Q01DX009 (ip), vehicle: saline + alcohol) is reported as 10 of 10 and the survivor count (dose: 0.9 mg/kg/injection, schedule: Q01DX009 (ip), vehicle: saline + alcohol) is reported as 10 of 10. The survivor count (dose: 0.9 mg/kg/injection, schedule: Q04DX003 (ip), vehicle: saline + alcohol) was 8 of 10 and 10 of 10, the survivor count (dose: 1.2 mg/kg/injection, schedule: Q04DX003 (ip), vehicle: saline + alcohol) was 9 of 10 and the survivor count (dose: 1.8 mg/kg/injection, schedule: Q01DX009 (ip), vehicle: saline + alcohol) was 7 of 10. The T/C (dose: 32.4 micrograms/kg/injection, schedule: Q01DX009 (ip), vehicle: saline + alcohol) was 130 % of control, the T/C (dose: 54.0 micrograms/kg/injection, schedule: Q01DX009 (ip), vehicle: saline + alcohol) was 127 % of control and the T/C (dose: 90.0 micrograms/kg/injection, schedule: Q01DX009 (ip), vehicle: saline + alcohol) was 142 % of control. The T/C [8] was 149 % of control, the survivor count [8] was 10 of 10 and the T/C (dose: 200.0 micrograms/kg/injection, schedule: Q01DX009 (ip), vehicle: saline + alcohol) was 128 % of control. For the same compound, the survivor count (dose: 300.0 micrograms/kg/injection, schedule: Q01DX009 (ip), vehicle: saline + alcohol) was 9 of 10, the survivor count (dose: 417.0 micrograms/kg/injection, schedule: Q01DX009 (ip), vehicle: saline + alcohol) was 10 of 10 and the survivor count (dose: 600.0 micrograms/kg/injection, schedule: Q01DX009 (ip), vehicle: saline + alcohol) was 1 of 10. For the same compound, the survivor count (dose: 1200.0 micrograms/kg/injection, schedule: Q01DX009 (ip), vehicle: saline + alcohol) was 0 of 10.
For `C[CH2][Pb]([CH2]C)([CH2]C)[O]C(=O)CBr`, the survivor count (dose: 6.0 mg/kg/injection, schedule: Q01DX009 (ip), vehicle: Klucel (hydroxypropylcellulose) (HPC)) was 8 of 8 and the survivor count (dose: 12.0 mg/kg/injection, schedule: Q01DX009 (ip), vehicle: Klucel (hydroxypropylcellulose) (HPC)) was 10 of 10.
With `COc1cccc2c1C(=O)c1c(O)c3c(c(O)c1C2=O)C[C@@](O)(C(=O)CO)C[C@@H]3OC1CC(N2CCOCC2C#N)C(O)C(C)O1` (stereo not given in full) the survivor count (dose: 75.0 micrograms/kg/injection, schedule: Q01DX001 (ip), vehicle: water) was 6 of 10, the survivor count (dose: 150.0 micrograms/kg/injection, schedule: Q01DX001 (ip), vehicle: water) was 0 of 10 and the survivor count (dose: 300.0 micrograms/kg/injection, schedule: Q01DX001 (ip), vehicle: water) was 0 of 10. For the same compound, the survivor count (dose: 600.0 micrograms/kg/injection, schedule: Q01DX001 (ip), vehicle: water) was 0 of 10.
`Cc1cc(NC(=O)CCc2ccc(N3C(N)=NC(N)=NC3(C)C)cc2)ccc1S(=O)(=O)F` was tested, and the survivor count (dose: 400.0 mg/kg/injection, schedule: Q01DX009 (ip), vehicle: saline sonified) was 4 of 6.
With `COc1ccccc1N1C(=O)CSC1=S` the survivor count [6] was 6 of 10 and the survivor count [1] was 0 of 10.
In the case of `CC1=NN(c2ccccc2)C(=O)C1N=Nc1ccccc1S(=O)(=O)O` (stereo not given), the survivor count [4] is reported as 10 of 10 and the survivor count [5] is reported as 10 of 10.
In the case of `CCN(CC)CCCC(C)Nc1c2ccc(C)cc2nc2ccc(OC)cc12` (stereo not given), the T/C [7] is reported as 126 % of control and the survivor count (dose: 100.0 mg/kg/injection, schedule: Q01DX009 (ip), vehicle: saline) is reported as 0 of 10 and 2 of 10.
`COc1cc2c3c(c1)/C(=N\Nc1ccccc1)CCN3CCC2` was tested, and the survivor count (dose: 0.75 mg/kg/injection, schedule: Q01DX009 (ip), vehicle: DMSO) was 10 of 10, the survivor count (dose: 0.78 mg/kg/injection, schedule: Q01DX009 (ip), vehicle: DMSO) was 9 of 9 and the survivor count (dose: 1.5 mg/kg/injection, schedule: Q01DX009 (ip), vehicle: DMSO) was 9 of 9. For the same compound, the survivor count (dose: 1.56 mg/kg/injection, schedule: Q01DX009 (ip), vehicle: DMSO) was 10 of 10, the survivor count (dose: 3.0 mg/kg/injection, schedule: Q01DX009 (ip), vehicle: DMSO) was 9 of 10, 10 of 10, 9 of 9 and the survivor count (dose: 6.0 mg/kg/injection, schedule: Q01DX009 (ip), vehicle: DMSO) was 10 of 10. The survivor count (dose: 12.0 mg/kg/injection, schedule: Q01DX009 (ip), vehicle: DMSO) was 10 of 10.
In the case of `CC(=O)[O][Sn]([CH2]c1ccccc1)([CH2]c1ccccc1)[CH2]c1ccccc1`, the survivor count (dose: 12.5 mg/kg/injection, schedule: Q01DX009 (ip), vehicle: other) is reported as 10 of 10 and the survivor count (dose: 25.0 mg/kg/injection, schedule: Q01DX009 (ip), vehicle: other) is reported as 9 of 10.
In the case of `CNCc1ccccc1C(O)c1ccc(Cl)cc1` (stereo not given), the survivor count [3] is reported as 9 of 10.
`CC(=O)NNC(=O)c1ccccc1` was tested, and the survivor count (dose: 100.0 mg/kg/injection, schedule: Q#A X018 (ip), vehicle: water) was 3 of 6.
